Laboratory results reported in publication PMC11991697.

By UniProt entry, the sequences of proteins in these tests, tags left out.
UniProt Q05086: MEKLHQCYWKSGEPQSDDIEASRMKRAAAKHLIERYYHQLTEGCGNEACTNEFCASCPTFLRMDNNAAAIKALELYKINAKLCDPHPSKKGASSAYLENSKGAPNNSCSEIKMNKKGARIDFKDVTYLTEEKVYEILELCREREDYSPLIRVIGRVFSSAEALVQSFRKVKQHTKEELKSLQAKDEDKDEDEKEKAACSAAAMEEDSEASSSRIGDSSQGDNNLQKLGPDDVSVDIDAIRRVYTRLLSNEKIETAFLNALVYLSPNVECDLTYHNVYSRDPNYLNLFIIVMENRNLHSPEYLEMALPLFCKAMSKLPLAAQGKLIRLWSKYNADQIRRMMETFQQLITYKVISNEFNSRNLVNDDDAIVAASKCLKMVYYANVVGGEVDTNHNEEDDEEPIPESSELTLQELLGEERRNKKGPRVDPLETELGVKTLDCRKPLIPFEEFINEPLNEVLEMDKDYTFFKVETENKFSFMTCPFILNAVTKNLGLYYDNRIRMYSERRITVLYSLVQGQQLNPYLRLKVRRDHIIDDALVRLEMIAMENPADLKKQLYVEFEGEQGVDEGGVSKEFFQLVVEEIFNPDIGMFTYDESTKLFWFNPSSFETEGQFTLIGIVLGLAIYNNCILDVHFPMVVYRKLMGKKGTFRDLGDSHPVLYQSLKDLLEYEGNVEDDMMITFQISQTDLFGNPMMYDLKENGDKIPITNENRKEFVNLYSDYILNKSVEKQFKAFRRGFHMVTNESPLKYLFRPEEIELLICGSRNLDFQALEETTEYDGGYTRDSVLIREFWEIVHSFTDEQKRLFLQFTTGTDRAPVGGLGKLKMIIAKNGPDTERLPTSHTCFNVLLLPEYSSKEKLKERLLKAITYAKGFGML

Target: T1, Flag-FRMD8 (human) (UniProt Q9BZ67)
T1 sequence: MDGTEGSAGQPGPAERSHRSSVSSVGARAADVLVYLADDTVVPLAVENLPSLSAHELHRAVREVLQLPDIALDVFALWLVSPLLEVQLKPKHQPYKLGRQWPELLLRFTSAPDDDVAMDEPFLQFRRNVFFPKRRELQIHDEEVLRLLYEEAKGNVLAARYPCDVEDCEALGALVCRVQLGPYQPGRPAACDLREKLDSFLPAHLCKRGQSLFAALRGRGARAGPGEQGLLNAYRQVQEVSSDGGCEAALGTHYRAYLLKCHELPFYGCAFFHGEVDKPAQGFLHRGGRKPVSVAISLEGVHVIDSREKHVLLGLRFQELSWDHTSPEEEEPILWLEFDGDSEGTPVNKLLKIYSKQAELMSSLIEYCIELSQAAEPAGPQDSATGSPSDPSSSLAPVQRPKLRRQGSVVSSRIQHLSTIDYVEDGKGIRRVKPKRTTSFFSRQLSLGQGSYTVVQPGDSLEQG
Experiment: affinity purification with mass spectrometry; HEK293A cells transiently expressing Flag-FRMD8 or empty vector, anti-Flag M2 agarose beads overnight at 4°C, PBS washes, SDS-PAGE, LC-MS/MS

Substance: endogenous UBE3A (from UniProt Q05086 1-875) (enzyme)
- binding: binds

No constants are given. Whether binding was seen depends on the method and setting. In cells and extracts the contact can be indirect. Here binding means that the protein was enriched with, or labelled near, the bait; the list need not be complete. Sequences can lack the tags named with a protein.
